{"source": "the supplement of paper PMC7752906", "note": "Where a name gives a salt, the structure may show the parent alone. Some of the results follow. Single values are uncertain here, since repeats match poorly.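 Test system: Schistosoma mansoni schistosomula, roughly 40 per well, imaged in bright field over time and compared with wells given 0.1% DMSO. Distance read-out: the paper calls a drug a hit when its Mahalanobis distance is at least 2.47, three standard deviations above the DMSO control mean. Degeneracy is the share of worms classified opaque.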 Numbered stars: 1 amine (or outer) side, 2 acyl side, 3 side chain; on linkers, the order of the positions; unused ones are H or OH. Bridge positions count the residues as written; N and C are the ends. Square brackets hold non-standard residues; d marks the D form. Peptide text beside a SMILES is read from it. I, II: the chains in the order shown. Actinocin(9to1) = Cc1c2oc3c(C)ccc(C(=O)[*:1])c3nc-2c(C(=O)[*:2])c(N)c1=O; NMeV = CN[C@H](C(=O)O)C(C)C; Sar = CNCC(=O)O"}
{"tested_on": "Schistosoma mansoni schistosomula", "test": "Mahalanobis distance of static-rate-frequency phenotype descriptors from DMSO controls (dimensionless); higher = stronger phenotypic change versus DMSO", "details": "10 µM; 72 h"}
{"smiles": "CN(C)C(=N)NC(=N)N", "note": "[metformin]", "Mahalanobis distance": "inactive: 1.4"}
{"smiles": "CCCNC(=O)NS(=O)(=O)c1ccc(Cl)cc1", "note": "[Chlorpropamide]", "Mahalanobis distance": "inactive: 1.66"}
{"smiles": "CC(=O)O[C@]1(C(C)=O)CC[C@H]2[C@@H]3C=C(Cl)C4=CC(=O)CC[C@]4(C)[C@H]3CC[C@@]21C", "note": "[Chlormadinone Acetate]", "Mahalanobis distance": "active: 2.49"}
{"smiles": "Clc1cccc(Cl)c1NC1=NCCN1", "note": "[Clonidine]", "Mahalanobis distance": "active: 2.79"}
{"smiles": "CO[C@H]1/C=C/O[C@@]2(C)Oc3c(C)c(O)c4c(O)c(c5c(nc6cc(C)ccn65)c4c3C2=O)NC(=O)/C(C)=C\\C=C\\[C@H](C)[C@H](O)[C@@H](C)[C@@H](O)[C@@H](C)[C@H](OC(C)=O)[C@@H]1C", "note": "[Rifaximin]", "Mahalanobis distance": "inactive: 1.72"}
{"smiles": "Cc1cc2nc3c(=O)[nH]c(=O)nc-3n(C[C@H](O)[C@H](O)[C@H](O)CO)c2cc1C", "note": "[riboflavin]", "Mahalanobis distance": "inactive: 2.14"}
{"smiles": "O=C1NCC2(CCN(CCc3ccccc3)CC2)O1", "note": "[Fenspiride Hydrochloride]", "Mahalanobis distance": "inactive: 2.12"}
{"smiles": "CN(C)CCOC(c1ccccc1)c1ccccc1.Cn1c(=O)c2[nH]c(Cl)nc2n(C)c1=O", "note": "[Dimenhydrinate]", "Mahalanobis distance": "inactive: 2.37"}
{"smiles": "CC(=O)[C@@]1(O)CC[C@H]2[C@@H]3CCC4=CC(=O)CC[C@]4(C)[C@H]3CC[C@@]21C", "note": "[Hydroxyprogesterone]", "Mahalanobis distance": "inactive: 1.3"}
{"smiles": "CCN(CC)C(=O)c1ccc(O)c(OC)c1", "note": "[Ethamivan]", "Mahalanobis distance": "inactive: 1.45"}
{"smiles": "O=C(c1ccc(F)cc1)C1CCN(CCn2c(=O)[nH]c3ccccc3c2=O)CC1", "note": "[Ketanserin Tartrate]", "Mahalanobis distance": "active: 2.57"}
{"smiles": "C[C@H](C(=O)O)c1cccc(C(=O)c2ccccc2)c1", "note": "[Dexketoprofen]", "Mahalanobis distance": "inactive: 1.38"}
{"smiles": "NCCS", "note": "[Cysteamine Hydrochloride]", "Mahalanobis distance": "active: 2.79"}
{"smiles": "COCCOC(=O)C1=C(C)NC(C)=C(C(=O)OC(C)C)C1c1cccc([N+](=O)[O-])c1", "note": "(configuration not stated) [Nimodipine]", "Mahalanobis distance": "inactive: 1.68"}
{"smiles": "CN1C(C(=O)Nc2ccccn2)=C(O)c2ccccc2S1(=O)=O", "note": "[Piroxicam]", "Mahalanobis distance": "inactive: 2.45"}
{"smiles": "CC1(C)[C@@H](O)CC[C@]2(C)[C@H]3C(=O)C=C4[C@@H]5C[C@@](C)(C(=O)O)CC[C@]5(C)CC[C@@]4(C)[C@]3(C)CC[C@@H]12", "note": "[Enoxolone]", "Mahalanobis distance": "inactive: 1.82"}
{"smiles": "O=C(O)/C=C/C(=O)O", "note": "[Fumaric Acid]", "Mahalanobis distance": "inactive: 1.56"}
{"smiles": "O=C(O)C[C@H](O)C[C@H](O)/C=C/c1c(C2CC2)nc2ccccc2c1-c1ccc(F)cc1", "note": "[Pitavastatin Calcium]", "Mahalanobis distance": "active: 4.97"}
{"smiles": "Cc1cc2c(OCC(CNC(C)(C)C)OC(=O)c3ccccc3)cccc2[nH]1", "note": "(configuration not stated) [Bopindolol]", "Mahalanobis distance": "inactive: 2.41"}
{"smiles": "NC(=O)c1ccc[n+]([C@@H]2O[C@H](COP(=O)([O-])OP(=O)(O)OC[C@H]3O[C@@H](n4cnc5c(N)ncnc54)[C@H](O)[C@@H]3O)[C@@H](O)[C@H]2O)c1", "note": "[Nadide]", "Mahalanobis distance": "inactive: 2.25"}
{"smiles": "NCC(=O)CCC(=O)O", "note": "[Aminolevulinic Acid Hydrochloride]", "Mahalanobis distance": "inactive: 2.38"}
{"smiles": "COc1ccc([C@@H]2Sc3ccccc3N(CCN(C)C)C(=O)[C@@H]2OC(C)=O)cc1", "note": "[Diltiazem Hydrochloride]", "Mahalanobis distance": "active: 4.51"}
{"smiles": "COc1ccc([C@@H]2Sc3ccccc3N(CCN(C)C)C(=O)[C@@H]2OC(C)=O)cc1", "note": "[Diltiazem]", "Mahalanobis distance": "active: 5.69"}
{"smiles": "Cc1cn([C@H]2C[C@H](N=[N+]=[N-])[C@@H](CO)O2)c(=O)[nH]c1=O", "note": "[Zidovudine [azt]]", "Mahalanobis distance": "inactive: 1.66"}
{"smiles": "NS(=O)(=O)Cc1noc2ccccc12", "note": "[Zonisamide]", "Mahalanobis distance": "inactive: 2.15"}
{"smiles": "CN(C)CCN(Cc1ccc(Cl)cc1)c1ccccn1", "note": "[Chloropyramine Hydrochloride]", "Mahalanobis distance": "active: 2.89"}
{"smiles": "CCCCCCCCCCOc1cc2c(O)c(C(=O)OCC)cnc2cc1OCC", "note": "[Decoquinate]", "Mahalanobis distance": "active: 2.54"}
{"smiles": "CC(=O)OCC(=O)[C@@]1(O)[C@H](OC(C)=O)C[C@H]2[C@@H]3CCC4=CC(=O)C=C[C@]4(C)[C@@]3(F)[C@@H](O)C[C@@]21C", "note": "[Triamcinolone Diacetate]", "Mahalanobis distance": "active: 2.57"}
{"smiles": "CC(C)Cn1cnc2c(N)nc3ccccc3c21", "note": "[Imiquimod]", "Mahalanobis distance": "inactive: 2.24"}
{"smiles": "CCNC(=O)[C@@H]1CCCN1C(=O)[C@H](CCCNC(=N)N)NC(=O)[C@H](CC(C)C)NC(=O)[C@@H](CC(C)C)NC(=O)[C@H](Cc1ccc(O)cc1)NC(=O)[C@H](CO)NC(=O)[C@H](Cc1c[nH]c2ccccc12)NC(=O)[C@H](Cc1c[nH]cn1)NC(=O)[C@@H]1CCC(=O)N1", "note": "[Leuprolide]", "Mahalanobis distance": "inactive: 1.58"}
{"smiles": "COc1cc(NS(=O)(=O)c2ccc(N)cc2)nc(OC)n1", "note": "[Sulfadimethoxine]", "Mahalanobis distance": "inactive: 1.92"}
{"smiles": "CC[N+](CC)(CC(=O)Nc1c(C)cccc1C)Cc1ccccc1", "note": "[Denatonium Benzoate]", "Mahalanobis distance": "inactive: 1.26"}
{"smiles": "CC1(C)O[C@@H]2[C@@H](CO[C@@]3(COS(N)(=O)=O)OC(C)(C)O[C@@H]23)O1", "note": "[Topiramate]", "Mahalanobis distance": "active: 2.52"}
{"smiles": "O=C(O)CCCC[C@@H]1CCSS1", "note": "[Thioctic Acid]", "Mahalanobis distance": "inactive: 1.93"}
{"smiles": "CCCCCCCCNC(C)C(O)c1ccc(SC(C)C)cc1", "note": "(configuration not stated) [suloctidil]", "Mahalanobis distance": "active: 2.98"}
{"smiles": "C[C@H]1O[C@@H](O[C@H]2[C@@H](O)C[C@H](O[C@H]3[C@@H](O)C[C@H](O[C@H]4CC[C@@]5(C)[C@H](CC[C@@H]6[C@@H]5CC[C@]5(C)[C@@H](C7=CC(=O)OC7)CC[C@]65O)C4)O[C@@H]3C)O[C@@H]2C)C[C@H](O)[C@@H]1O", "note": "[digitoxin]", "Mahalanobis distance": "inactive: 2.39"}
{"smiles": "CN(Cc1ccc(C(C)(C)C)cc1)Cc1cccc2ccccc12", "note": "[Butenafine]", "Mahalanobis distance": "inactive: 2.07"}
{"smiles": "CC(C)NC(=N)NC(=N)Nc1ccc(Cl)cc1", "note": "[Proguanil; Chlorguanide Hydrochloride]", "Mahalanobis distance": "inactive: 2.21"}
{"smiles": "O=c1[nH]c(=O)n([C@H]2C[C@H](O)[C@@H](CO)O2)cc1C(F)(F)F", "note": "[Trifluridine]", "Mahalanobis distance": "inactive: 1.78"}
{"smiles": "CCCC(=O)O[C@]1(C(=O)CO)CC[C@H]2[C@@H]3CCC4=CC(=O)CC[C@]4(C)[C@H]3[C@@H](O)C[C@@]21C", "note": "[Hydrocortisone Butyrate]", "Mahalanobis distance": "inactive: 2.28"}
{"smiles": "CC1(C)S[C@@H]2[C@H](NC(=O)COc3ccccc3)C(=O)N2[C@H]1C(=O)O", "note": "[Penicillin V Potassium]", "Mahalanobis distance": "inactive: 2.24"}
{"smiles": "Cc1ccc(C(C)C)c(O)c1", "note": "[Thymol]", "Mahalanobis distance": "inactive: 1.92"}
{"smiles": "Clc1cc(Cl)c(OCC#CI)cc1Cl", "note": "[Haloprogin]", "Mahalanobis distance": "inactive: 2.05"}
{"smiles": "Nc1nnc(-c2cccc(Cl)c2Cl)c(N)n1", "note": "[Lamotrigine]", "Mahalanobis distance": "inactive: 2.14"}
{"smiles": "CC(=O)O[C@]1(C(C)=O)CC[C@H]2[C@@H]3C=C(C)C4=CC(=O)CC[C@]4(C)[C@H]3CC[C@@]21C", "note": "[Megestrol Acetate]", "Mahalanobis distance": "inactive: 2.1"}
{"smiles": "Cc1c(C)c2c(c(C)c1O)CCC(C)(CCCC(C)CCCC(C)CCCC(C)C)O2", "note": "(stereo not drawn) [Alpha-tochopherol]", "Mahalanobis distance": "inactive: 2.36"}
{"smiles": "Cc1c2oc3c(C)ccc(C(=O)N[C@@H]4C(=O)N[C@H](C(C)C)C(=O)N5CCC[C@H]5C(=O)N(C)CC(=O)N(C)[C@@H](C(C)C)C(=O)O[C@@H]4C)c3nc-2c(C(=O)N[C@@H]2C(=O)N[C@H](C(C)C)C(=O)N3CCC[C@H]3C(=O)N(C)CC(=O)N(C)[C@@H](C(C)C)C(=O)O[C@@H]2C)c(N)c1=O", "note": "[Dactinomycin] (I: T[dV]P[Sar][NMeV] / II: T[dV]P[Sar][NMeV]; ester I:1-I:C, II:1-II:C; linker I:N-II:N via Actinocin(9to1))", "Mahalanobis distance": "inactive: 2.06"}
{"smiles": "Cc1nccn1CC1CCc2c(c3ccccc3n2C)C1=O", "note": "(configuration not stated) [Ondansetron]", "Mahalanobis distance": "active: 3.62"}
{"smiles": "NC(=O)c1cc[n+](CC2=C(C(=O)[O-])N3C(=O)[C@@H](NC(=O)Cc4cccs4)[C@H]3SC2)cc1", "note": "[Cefalonium]", "Mahalanobis distance": "inactive: 1.86"}
{"smiles": "O=C1C(O)=C(O)C(=O)C(O)=C1O", "note": "[Tetroquinone]", "Mahalanobis distance": "inactive: 1.36"}
{"smiles": "O=C(c1cccnc1)N1CCOCC1", "note": "[Nicopholine]", "Mahalanobis distance": "inactive: 1.61"}
{"smiles": "COc1ccc2cc3[n+](cc2c1OC)CCc1cc2c(cc1-3)OCO2", "note": "[Berberine Chloride]", "Mahalanobis distance": "inactive: 2.36"}
{"smiles": "CC1=C(C(=O)O)N2C(=O)[C@@H](NC(=O)[C@H](N)c3ccccc3)[C@H]2SC1", "note": "[Cephalexin]", "Mahalanobis distance": "inactive: 2.03"}
{"smiles": "CC[C@H](C)C(=O)O[C@H]1C[C@H](O)C=C2C=C[C@H](C)[C@H](CC[C@@H](O)C[C@@H](O)CC(=O)O)[C@H]21", "note": "[Pravastatin]", "Mahalanobis distance": "inactive: 2.2"}
{"smiles": "CC[C@H](C)C(=O)O[C@H]1C[C@H](O)C=C2C=C[C@H](C)[C@H](CC[C@@H](O)C[C@@H](O)CC(=O)O)[C@H]21", "note": "[Pravastatin Sodium]", "Mahalanobis distance": "inactive: 1.95"}
{"smiles": "O=C(O)Cc1cc(I)c(Oc2ccc(O)c(I)c2)c(I)c1", "note": "[Tiratricol]", "Mahalanobis distance": "inactive: 2.36"}
{"smiles": "O=C(CCCCC(=O)Nc1c(I)cc(I)c(C(=O)O)c1I)Nc1c(I)cc(I)c(C(=O)O)c1I", "note": "[iodipamide]", "Mahalanobis distance": "active: 2.63"}
{"smiles": "Cc1ccc(C(=O)C(C)CN2CCCCC2)cc1", "note": "(configuration not stated) [tolperisone]", "Mahalanobis distance": "inactive: 1.91"}
{"smiles": "CCCCC1C(=O)N(c2ccccc2)N(c2ccccc2)C1=O", "note": "[Phenylbutazone]", "Mahalanobis distance": "inactive: 1.42"}
{"smiles": "CC(=O)/N=c1/sc(S(N)(=O)=O)nn1C", "note": "[Methazolamide]", "Mahalanobis distance": "inactive: 1.76"}
{"smiles": "CC1=CC(=O)c2ccccc2C1=O", "note": "[menadione]", "Mahalanobis distance": "inactive: 2.46"}
{"smiles": "COCCCOc1cc(C[C@@H](C[C@H](N)[C@@H](O)C[C@H](C(=O)NCC(C)(C)C(N)=O)C(C)C)C(C)C)ccc1OC", "note": "[Aliskiren Hemifumarate]", "Mahalanobis distance": "inactive: 1.77"}
